Test results taken from publication PMC3410854.
Results are given in words; binding and its absence hold for the method and conditions named. In cells and extracts the contact can be indirect. Some results given as binding are weak or reduced against the parent protein; the word gives no strength. Sequences can lack the tags named with a protein.

Target: T1, Pcm1-myc (S. pombe) (UniProt O74880)
T1 sequence: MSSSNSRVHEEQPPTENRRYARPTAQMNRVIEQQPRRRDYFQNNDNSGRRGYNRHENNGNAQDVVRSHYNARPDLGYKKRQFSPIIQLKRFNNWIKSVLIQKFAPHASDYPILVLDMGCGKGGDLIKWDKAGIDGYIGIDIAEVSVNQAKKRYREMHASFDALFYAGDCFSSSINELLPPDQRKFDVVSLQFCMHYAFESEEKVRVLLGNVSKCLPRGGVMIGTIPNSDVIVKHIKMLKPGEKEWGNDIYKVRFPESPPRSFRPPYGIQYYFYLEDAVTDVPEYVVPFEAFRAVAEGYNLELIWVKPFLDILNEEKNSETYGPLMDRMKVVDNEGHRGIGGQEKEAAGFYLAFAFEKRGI
Experiment: co-IP; lysates of S. pombe pcm1-myc (CS145) or cdk9^as pcm1-myc (CS165) strains incubated with anti-myc-bound protein G beads or protein G alone (mock); immunoprecipitates analysed by immunoblotting and for Rpb1-CTD kinase activity

B1: Cdk9 (enzyme, UniProt Q96WV9 1-591)
chain: MKRSSSVSVEDEKSARRKLDVVPKLHFVGCSHLTDYHLMEKLGEGTFGEVYKSQRRKDGKVYALKRILMHTEKEGFPITAIREIKILKSIKHENIIPLSDMTVVRADKKHRRRGSIYMVTPYMDHDLSGLLENPSVKFTEPQIKCYMKQLFAGTKYLHDQLILHRDLKAANLLIDNHGILKIADFGLARVITEESYANKNPGLPPPNRREYTGCVVTRWYRSPELLLGERRYTTAIDMWSVGCIMAEMYKGRPILQGSSDLDQLDKIFRLCGSPTQATMPNWEKLPGCEGVRSFPSHPRTLETAFFTFGKEMTSLCGAILTLNPDERLSASMALEHEYFTTPPYPANPSELQSYSASHEYDKRRKREQRDANSHAFEQTANGKRQFRFMTRGPSDPWYGIRRPNYNSQPQYQRGSYNREGGNMDRSRNVNYQPKRQQNFKPLTSDLPQKNSEFSETNAMNQTSNHSHADGQRYYRPEQDRSQRLRNPSDYGRQGRQSSQSQQPAWNVSSRYQNNSKVQTTSRASENADTNKTQHNIKYIDSYVPEYSIARQSANQKTNEQHPSSTSLHQQSTSDLKSPSFHENSNVDDTPK
  binding: binds
